Assay results as given in publication PMC8501799, “Constitutive signal bias mediated by the human GHRHR splice variant 1” (Proceedings of the National Academy of Sciences of the …, 2021).
Positions count from the first letter of the chain named. Results are given in words; binding and its absence hold for the method and conditions named. Binding seen in cells or lysates may run through a third protein. Some results given as binding are weak or reduced against the parent protein; the word gives no strength. For some of these results: Tags and fused reporters may be left off the sequences shown.

Assays:
Assay in all cases: FRET or BRET; β-arrestin 1/2 recruitment assay in live HEK293T cells co-transfected with receptor-Rluc8 and β-arrestin 1/2-Venus (1:9 mass ratio); coelenterazine h; started with 250 μM GHRH; AUC of the BRET time course (535 nm/470 nm) normalised to WT GHRHR = 100%
[1] = target: T1, HA-Flag-GHRHR-Rluc8 (human) (UniProt Q02643)
T1 sequence: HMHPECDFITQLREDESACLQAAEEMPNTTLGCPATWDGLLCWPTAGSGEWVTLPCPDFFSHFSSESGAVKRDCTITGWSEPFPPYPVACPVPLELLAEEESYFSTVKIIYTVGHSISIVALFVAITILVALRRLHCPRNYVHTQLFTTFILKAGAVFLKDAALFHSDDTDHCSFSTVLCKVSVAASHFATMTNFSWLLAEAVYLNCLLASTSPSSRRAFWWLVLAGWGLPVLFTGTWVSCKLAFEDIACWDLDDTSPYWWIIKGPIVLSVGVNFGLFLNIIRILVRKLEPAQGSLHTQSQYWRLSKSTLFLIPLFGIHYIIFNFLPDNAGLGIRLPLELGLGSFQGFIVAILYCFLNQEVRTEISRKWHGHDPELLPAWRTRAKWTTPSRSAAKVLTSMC

GHRHR L62A (human) = target: T2, GHRHR L62A (human) (UniProt Q02643)
T2 sequence: T1 sequence with L40A

GHRHR F82A (human) = target: T3, GHRHR F82A (human) (UniProt Q02643)
T3 sequence: T1 sequence with F60A

GHRHR L34A (human) = target: T4, GHRHR L34A (human) (UniProt Q02643)
T4 sequence: T1 sequence with L12A

GHRHR F85A (human) = target: T5, GHRHR F85A (human) (UniProt Q02643)
T5 sequence: T1 sequence with F63A

[2] = target: T6, truncated GHRHR that lacks the first 89 residues (human) (UniProt Q02643)
T6 sequence: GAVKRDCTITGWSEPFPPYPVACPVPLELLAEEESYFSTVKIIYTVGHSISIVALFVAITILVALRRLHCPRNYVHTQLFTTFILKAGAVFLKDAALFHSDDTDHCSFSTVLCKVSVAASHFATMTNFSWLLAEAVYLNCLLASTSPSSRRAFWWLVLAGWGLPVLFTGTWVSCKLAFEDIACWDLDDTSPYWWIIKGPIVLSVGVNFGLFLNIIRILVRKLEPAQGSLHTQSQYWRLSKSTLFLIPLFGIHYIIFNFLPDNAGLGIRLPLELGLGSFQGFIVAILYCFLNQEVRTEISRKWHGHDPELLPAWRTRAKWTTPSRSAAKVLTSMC

[3] = target: T7, GHRHR with all four ECD residues L34, L62, F82 and F85 substituted with alanine (human) (UniProt Q02643)
T7 sequence: T1 sequence with L12A, L40A, F60A, F63A

Measured: binding

β-arrestin 2-Venus (from UniProt P32121 1-409)
binds: all assays above
